# Test results taken from the supplement of paper PMC12819154, “High-throughput peptide-centric local stability assay extends protein–ligand identification to membrane proteins, tissues and bacteria” (Nature Structural & Molecular Biology, 2025).
# Amino acid sequences for entries named in this document (tags omitted). A change or cut given only in a name is not applied to a line headed by its entry.
# UniProt P31153, whole entry, looked up: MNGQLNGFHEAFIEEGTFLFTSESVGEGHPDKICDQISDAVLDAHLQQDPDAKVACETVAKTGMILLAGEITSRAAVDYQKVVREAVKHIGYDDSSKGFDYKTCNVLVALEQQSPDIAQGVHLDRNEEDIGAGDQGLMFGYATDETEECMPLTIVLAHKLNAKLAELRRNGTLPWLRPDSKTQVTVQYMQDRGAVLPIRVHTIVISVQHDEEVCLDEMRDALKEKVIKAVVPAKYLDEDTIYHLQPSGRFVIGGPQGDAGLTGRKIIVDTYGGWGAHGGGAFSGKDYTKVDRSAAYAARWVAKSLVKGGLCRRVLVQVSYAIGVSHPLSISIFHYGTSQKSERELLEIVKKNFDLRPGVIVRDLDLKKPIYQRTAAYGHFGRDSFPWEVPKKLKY
# UniProt P30038: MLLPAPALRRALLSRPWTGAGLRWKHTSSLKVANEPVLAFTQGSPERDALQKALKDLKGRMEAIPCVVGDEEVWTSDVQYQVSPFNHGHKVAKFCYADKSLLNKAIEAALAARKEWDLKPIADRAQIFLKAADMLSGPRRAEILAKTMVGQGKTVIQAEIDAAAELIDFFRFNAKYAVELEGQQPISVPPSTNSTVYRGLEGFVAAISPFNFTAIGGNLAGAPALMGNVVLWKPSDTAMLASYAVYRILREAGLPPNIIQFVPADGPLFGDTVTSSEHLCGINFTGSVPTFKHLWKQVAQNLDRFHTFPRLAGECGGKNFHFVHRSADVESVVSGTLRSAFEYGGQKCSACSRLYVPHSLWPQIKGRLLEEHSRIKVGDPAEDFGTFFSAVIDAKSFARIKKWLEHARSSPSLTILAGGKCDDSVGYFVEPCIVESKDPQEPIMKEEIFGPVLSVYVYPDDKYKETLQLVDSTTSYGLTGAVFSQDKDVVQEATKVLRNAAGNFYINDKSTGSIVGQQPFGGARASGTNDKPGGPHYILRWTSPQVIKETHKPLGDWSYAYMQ
# UniProt P46019: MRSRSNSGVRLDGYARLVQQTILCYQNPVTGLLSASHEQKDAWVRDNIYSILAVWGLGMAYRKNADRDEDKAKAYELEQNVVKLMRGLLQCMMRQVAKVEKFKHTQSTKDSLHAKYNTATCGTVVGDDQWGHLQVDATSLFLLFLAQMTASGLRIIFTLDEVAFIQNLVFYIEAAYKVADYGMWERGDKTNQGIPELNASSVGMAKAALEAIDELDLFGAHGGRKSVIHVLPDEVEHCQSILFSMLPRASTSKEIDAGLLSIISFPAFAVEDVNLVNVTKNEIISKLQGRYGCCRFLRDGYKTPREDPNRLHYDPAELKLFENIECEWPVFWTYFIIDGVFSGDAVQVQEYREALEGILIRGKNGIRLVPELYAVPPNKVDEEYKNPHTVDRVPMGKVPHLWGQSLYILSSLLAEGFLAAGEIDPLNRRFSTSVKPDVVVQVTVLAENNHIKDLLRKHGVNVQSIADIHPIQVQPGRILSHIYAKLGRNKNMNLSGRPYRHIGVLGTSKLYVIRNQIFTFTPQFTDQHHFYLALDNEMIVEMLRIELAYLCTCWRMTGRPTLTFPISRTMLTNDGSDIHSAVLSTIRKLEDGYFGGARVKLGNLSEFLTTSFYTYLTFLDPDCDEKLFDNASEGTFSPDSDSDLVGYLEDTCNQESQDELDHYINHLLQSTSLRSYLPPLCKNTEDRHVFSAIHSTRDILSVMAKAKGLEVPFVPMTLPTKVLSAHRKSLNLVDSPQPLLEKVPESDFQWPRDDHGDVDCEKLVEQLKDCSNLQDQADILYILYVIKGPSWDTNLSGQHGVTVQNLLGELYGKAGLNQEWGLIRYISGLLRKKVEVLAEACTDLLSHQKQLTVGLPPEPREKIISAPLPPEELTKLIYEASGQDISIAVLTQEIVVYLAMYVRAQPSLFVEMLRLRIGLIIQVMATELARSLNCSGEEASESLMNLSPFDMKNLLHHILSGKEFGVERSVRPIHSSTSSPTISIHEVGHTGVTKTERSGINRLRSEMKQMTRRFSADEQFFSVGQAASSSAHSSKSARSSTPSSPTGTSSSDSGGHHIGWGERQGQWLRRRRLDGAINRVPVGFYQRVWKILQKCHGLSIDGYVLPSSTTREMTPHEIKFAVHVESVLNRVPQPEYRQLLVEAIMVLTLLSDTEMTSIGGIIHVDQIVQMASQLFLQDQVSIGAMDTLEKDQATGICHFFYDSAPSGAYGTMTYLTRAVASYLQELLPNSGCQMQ
# UniProt P32121, whole entry: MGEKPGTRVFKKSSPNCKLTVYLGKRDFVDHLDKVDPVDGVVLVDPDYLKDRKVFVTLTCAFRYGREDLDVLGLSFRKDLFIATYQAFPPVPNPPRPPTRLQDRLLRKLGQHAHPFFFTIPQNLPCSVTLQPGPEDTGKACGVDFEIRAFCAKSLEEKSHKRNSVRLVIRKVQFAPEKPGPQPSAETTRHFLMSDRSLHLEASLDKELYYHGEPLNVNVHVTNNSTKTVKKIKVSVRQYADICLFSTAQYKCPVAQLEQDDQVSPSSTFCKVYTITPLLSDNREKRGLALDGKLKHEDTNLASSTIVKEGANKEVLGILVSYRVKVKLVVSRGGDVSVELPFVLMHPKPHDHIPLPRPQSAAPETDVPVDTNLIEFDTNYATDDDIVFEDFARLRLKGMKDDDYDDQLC
# UniProt P35241, whole entry: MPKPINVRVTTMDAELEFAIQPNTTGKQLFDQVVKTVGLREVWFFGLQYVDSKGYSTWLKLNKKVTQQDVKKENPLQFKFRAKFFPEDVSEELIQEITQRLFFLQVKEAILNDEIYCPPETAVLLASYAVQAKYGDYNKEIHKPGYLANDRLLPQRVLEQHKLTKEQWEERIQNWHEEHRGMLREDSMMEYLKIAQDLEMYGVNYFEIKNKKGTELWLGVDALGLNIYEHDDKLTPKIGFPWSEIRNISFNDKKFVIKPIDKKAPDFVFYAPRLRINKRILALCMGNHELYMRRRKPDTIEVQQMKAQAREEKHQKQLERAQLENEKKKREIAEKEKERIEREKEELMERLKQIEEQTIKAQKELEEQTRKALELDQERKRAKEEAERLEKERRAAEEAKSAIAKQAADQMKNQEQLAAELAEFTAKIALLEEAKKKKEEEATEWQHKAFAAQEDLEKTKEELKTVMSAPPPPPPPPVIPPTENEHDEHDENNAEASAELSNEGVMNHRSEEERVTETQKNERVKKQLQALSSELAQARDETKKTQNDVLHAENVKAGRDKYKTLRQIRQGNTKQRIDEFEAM
# UniProt P31321, whole entry: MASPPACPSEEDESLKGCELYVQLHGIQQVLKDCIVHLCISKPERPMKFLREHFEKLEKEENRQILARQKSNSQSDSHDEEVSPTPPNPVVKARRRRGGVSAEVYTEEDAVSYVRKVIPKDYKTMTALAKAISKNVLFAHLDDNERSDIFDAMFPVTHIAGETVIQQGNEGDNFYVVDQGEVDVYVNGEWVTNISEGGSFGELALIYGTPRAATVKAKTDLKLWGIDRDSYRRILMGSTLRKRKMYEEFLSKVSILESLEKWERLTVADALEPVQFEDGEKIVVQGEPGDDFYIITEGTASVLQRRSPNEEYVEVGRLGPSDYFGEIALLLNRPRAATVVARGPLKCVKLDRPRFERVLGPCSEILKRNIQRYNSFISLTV
# UniProt P29350: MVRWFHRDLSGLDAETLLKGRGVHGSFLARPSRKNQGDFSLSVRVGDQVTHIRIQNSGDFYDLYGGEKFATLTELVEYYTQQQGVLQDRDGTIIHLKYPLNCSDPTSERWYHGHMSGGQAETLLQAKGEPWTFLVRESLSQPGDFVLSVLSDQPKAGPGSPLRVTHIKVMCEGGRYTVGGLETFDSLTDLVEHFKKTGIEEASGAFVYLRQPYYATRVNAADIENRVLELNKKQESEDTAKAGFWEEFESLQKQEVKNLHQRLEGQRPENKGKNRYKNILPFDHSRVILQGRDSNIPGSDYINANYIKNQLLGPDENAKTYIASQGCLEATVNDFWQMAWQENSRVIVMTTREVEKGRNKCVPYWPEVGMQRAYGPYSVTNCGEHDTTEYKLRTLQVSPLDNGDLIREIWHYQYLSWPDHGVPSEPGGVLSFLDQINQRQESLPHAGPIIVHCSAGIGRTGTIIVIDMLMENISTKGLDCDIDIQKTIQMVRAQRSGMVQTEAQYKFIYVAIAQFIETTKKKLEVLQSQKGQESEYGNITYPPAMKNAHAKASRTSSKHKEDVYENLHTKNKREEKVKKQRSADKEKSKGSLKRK
# UniProt P35606: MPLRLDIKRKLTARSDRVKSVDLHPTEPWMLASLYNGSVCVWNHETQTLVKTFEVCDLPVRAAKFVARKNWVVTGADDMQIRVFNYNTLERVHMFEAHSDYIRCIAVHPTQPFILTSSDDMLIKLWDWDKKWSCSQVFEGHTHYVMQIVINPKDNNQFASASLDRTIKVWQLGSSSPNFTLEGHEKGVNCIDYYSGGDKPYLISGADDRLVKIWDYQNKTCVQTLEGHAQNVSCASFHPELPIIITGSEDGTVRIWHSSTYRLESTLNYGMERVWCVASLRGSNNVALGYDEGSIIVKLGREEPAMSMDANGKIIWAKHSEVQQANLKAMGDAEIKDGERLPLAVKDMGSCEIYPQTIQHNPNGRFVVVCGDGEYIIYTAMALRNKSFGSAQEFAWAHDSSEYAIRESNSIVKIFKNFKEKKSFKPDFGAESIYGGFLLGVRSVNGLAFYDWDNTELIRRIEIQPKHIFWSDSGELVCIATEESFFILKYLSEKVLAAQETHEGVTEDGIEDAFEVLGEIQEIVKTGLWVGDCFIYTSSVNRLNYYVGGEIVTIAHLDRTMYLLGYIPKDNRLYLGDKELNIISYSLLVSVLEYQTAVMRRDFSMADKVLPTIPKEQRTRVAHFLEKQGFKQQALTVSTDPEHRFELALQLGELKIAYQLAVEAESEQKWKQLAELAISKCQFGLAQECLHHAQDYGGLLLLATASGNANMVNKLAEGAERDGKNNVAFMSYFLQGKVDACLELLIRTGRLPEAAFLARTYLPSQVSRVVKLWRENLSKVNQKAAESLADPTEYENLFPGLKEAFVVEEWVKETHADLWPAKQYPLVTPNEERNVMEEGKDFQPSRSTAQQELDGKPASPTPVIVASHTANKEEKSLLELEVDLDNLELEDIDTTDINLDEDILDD
# UniProt P40616: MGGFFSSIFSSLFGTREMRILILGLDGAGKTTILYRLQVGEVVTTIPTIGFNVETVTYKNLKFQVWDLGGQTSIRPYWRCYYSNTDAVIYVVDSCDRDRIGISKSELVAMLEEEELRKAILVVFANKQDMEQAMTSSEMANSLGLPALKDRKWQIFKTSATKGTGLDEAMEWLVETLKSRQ
# UniProt P28749: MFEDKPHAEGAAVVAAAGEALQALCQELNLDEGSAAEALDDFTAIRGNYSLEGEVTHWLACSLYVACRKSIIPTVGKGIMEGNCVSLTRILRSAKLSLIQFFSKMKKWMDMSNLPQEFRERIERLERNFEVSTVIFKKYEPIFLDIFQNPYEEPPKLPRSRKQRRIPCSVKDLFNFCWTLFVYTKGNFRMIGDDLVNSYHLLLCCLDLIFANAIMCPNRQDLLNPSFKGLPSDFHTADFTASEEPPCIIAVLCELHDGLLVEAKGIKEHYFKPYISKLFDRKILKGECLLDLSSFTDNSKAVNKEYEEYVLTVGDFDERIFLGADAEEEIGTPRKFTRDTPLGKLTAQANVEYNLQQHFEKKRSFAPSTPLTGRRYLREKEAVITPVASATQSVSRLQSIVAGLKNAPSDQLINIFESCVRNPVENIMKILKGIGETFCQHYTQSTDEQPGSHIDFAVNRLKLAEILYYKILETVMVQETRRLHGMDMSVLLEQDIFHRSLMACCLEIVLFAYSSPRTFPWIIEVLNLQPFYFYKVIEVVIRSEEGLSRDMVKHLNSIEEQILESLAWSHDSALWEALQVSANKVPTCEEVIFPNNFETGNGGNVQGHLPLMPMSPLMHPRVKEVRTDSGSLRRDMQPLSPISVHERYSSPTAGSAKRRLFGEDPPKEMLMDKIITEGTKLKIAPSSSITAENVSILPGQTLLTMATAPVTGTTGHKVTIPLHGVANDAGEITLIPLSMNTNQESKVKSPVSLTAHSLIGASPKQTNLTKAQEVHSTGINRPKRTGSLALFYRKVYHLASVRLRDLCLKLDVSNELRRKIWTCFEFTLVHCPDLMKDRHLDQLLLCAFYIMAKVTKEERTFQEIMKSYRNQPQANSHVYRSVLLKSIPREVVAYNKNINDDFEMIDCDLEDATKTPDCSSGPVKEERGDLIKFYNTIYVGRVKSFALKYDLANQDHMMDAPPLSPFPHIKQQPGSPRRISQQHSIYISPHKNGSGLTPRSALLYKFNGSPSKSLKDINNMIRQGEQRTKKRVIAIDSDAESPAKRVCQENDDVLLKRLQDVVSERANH
# The other results are listed elsewhere or left out. Most values lie at the level of the controls, where differences are scatter.
# Compound: Cc1nc(Nc2ncc(C(=O)Nc3c(C)cccc3Cl)s2)cc(N2CCN(CCO)CC2)n1 [dasatinib]
# Experiment: log2 fold change of tryptic peptide abundance, ligand vs vehicle (limited proteolysis) (log2 ratio); higher = more trypsin-susceptible (destabilized)
# Settings: ligand concentration: 5 uM; sample: K562 cleared lysate
row,Target,log2 fold change
1,"ZEB1 (peptide sequence: VAVDGNVIR, peptide start residue: 418) (UniProt P37275)",0.259
2,"MAT2A (peptide sequence: RNGTLPWLRPDSK, peptide start residue: 169) (UniProt P31153)",0.529
3,"RPL35 (peptide sequence: VLTVINQTQKENLRK, peptide start residue: 57) (UniProt P42766)",-0.103
4,"LONP1 (peptide sequence: AGVTCIVLPAENKK, peptide start residue: 905) (UniProt P36776)",-0.205
5,"UniProt P35713 (peptide sequence: RPMNAFMVWAKDER, peptide start residue: 623)",-0.064
6,"ALDH4A1 (peptide sequence: QVAQNLDRFHTFPR, peptide start residue: 297) (UniProt P30038)",0.494
7,"PHKA2 (peptide sequence: RLDGAINRVPVGFYQR, peptide start residue: 1072) (UniProt P46019)",-0.243
8,"SLC19A1 (peptide sequence: AAQALSVQDK, peptide start residue: 480) (UniProt P41440)",-0.0872
9,"ARRB2 (peptide sequence: LKHEDTNLASSTIVK, peptide start residue: 294) (UniProt P32121)",-0.218
10,"RDX (peptide sequence: KTQNDVLHAENVKAGR, peptide start residue: 544) (UniProt P35241)",1
11,"SHC1 (peptide sequence: TRVEGGQLGGEEWTR, peptide start residue: 122) (UniProt P29353)",-0.0617
12,"MYH10 (peptide sequence: QLKDKADFCIIHYAGK, peptide start residue: 561) (UniProt P35580)",0.662
13,"PSMC2 (peptide sequence: DFLEAVNK, peptide start residue: 408) (UniProt P35998)",0.581
14,"ERCC5 (peptide sequence: QYEDEGGFLKEVESR, peptide start residue: 265) (UniProt P28715)",0.527
15,"PRKAR1B (peptide sequence: RSPNEEYVEVGR, peptide start residue: 306) (UniProt P31321)",-0.504
16,"ERP29 (peptide sequence: FDTQYPYGEK, peptide start residue: 60) (UniProt P30040)",-0.756
17,"PTPN6 (peptide sequence: GLDCDIDIQK, peptide start residue: 477) (UniProt P29350)",0.287
18,"BMI1 (peptide sequence: SKEEVNDKR, peptide start residue: 154) (UniProt P35226)",0.152
19,"PSMC4 (peptide sequence: ADTLDPALLRPGR, peptide start residue: 314) (UniProt P43686)",-0.0523
20,"MARCKS (peptide sequence: GEAAAERPGEAAVASSPSK, peptide start residue: 12) (UniProt P29966)",0.115
21,"STIP1 (peptide sequence: KFMNPFNMPNLYQK, peptide start residue: 123) (UniProt P31948)",0.0999
22,"COPB2 (peptide sequence: ETHADLWPAKQYPLVTPNEER, peptide start residue: 813) (UniProt P35606)",0.172
23,"ARL1 (peptide sequence: AILVVFANK, peptide start residue: 119) (UniProt P40616)",-0.0456
24,"RBL1 (peptide sequence: LFGEDPPKEMLMDK, peptide start residue: 660) (UniProt P28749)",0.181
25,"COL18A1 (peptide sequence: ELLREETGAALKPR, peptide start residue: 675) (UniProt P39060)",0.669
26,"P41778 (peptide sequence: KCGITVSQVSNWFGNKR, peptide start residue: 283) (UniProt P40424)",0.137

# Single values from the list.
# In log2 fold change, MAT2A (peptide sequence: RNGTLPWLRPDSK, peptide start residue: 169) (UniProt P31153) has the entry 0.529
# In log2 fold change, PSMC2 (peptide sequence: DFLEAVNK, peptide start residue: 408) (UniProt P35998) has the entry 0.581
